At least one peptide structure holds a part that was inferred or is arguable (an end, a ring closure or a residue).
How the values were obtained:
urine cGMP [1] = conditions: cohort 1, initial dose 2.5 μg/kg/d, day 1; cited from earlier work
urine cGMP [2] = experiment: Urine cGMP (bioactivity) on day 1, study 111-202; format: in vivo, human; conditions: cohort 2, 7.5 μg/kg/d
[3] = test system: children with achondroplasia; experiment: Annualized growth velocity (AGV), Phase 2 dose-finding and extension study 111-202; format: in vivo, human; conditions: for annualized growth velocity (AGV): 15 or 30 μg/kg/day (Cohorts 3 and 4), after 6 months; for Delta AGV @ 6 months: increase from screening
[4] = test system: children with achondroplasia age 3 to 6 months (cohort 3); experiment: MRI of skull and brain morphology, Phase II study (Study 206); format: in vivo, human; conditions: cohort 3, 30 μg/kg daily subcutaneously, 52 weeks, versus placebo
[5] = test system: endogenous CNP production (plasma NTproCNP); experiment: Acute change in plasma NTproCNP 4 hr (8 hr) after Vosoritide injection; format: in vivo, human; conditions: for plasma NTproCNP, Post: 4 hr post injection; for plasma NTproCNP, Post / Change (delta) in plasma NTproCNP at 4 hr post Vosoritide / plasma NTproCNP, Pre: all cohorts combined; for plasma NTproCNP, Pre: before injection
[6] = test system: children aged 3 to 60 months; format: in vivo, human; conditions: once-daily subcutaneous
Description: See also PCT Application No. PCT/US22/73605.

[7] = test system: bone growth biomarkers (CXM, BSAP, CTxII, PINP); experiment: Bone growth biomarkers in study 111-202 (CXM, BSAP, CTxII, PINP); format: in vivo, human
[8] = test system: pediatric subjects with achondroplasia; experiment: AGV in placebo-controlled Phase 3 study 111-301; format: in vivo, human; conditions: study 111-301, 15 ug/kg/day, by 3 months, versus placebo
serum CXM, serum BSAP = experiment: Serum CXM and BSAP in Phase 3 study 111-301; format: in vivo, human; conditions: study 111-301, treated subjects
[9] = test system: endogenous CNP production (plasma NTproCNP); experiment: Serial pre-injection plasma NTproCNP and NTproCNP SDS during daily Vosoritide; format: in vivo, human
plasma NTproCNP = experiment: Clinical (safety) study BMN 111-101, plasma NTproCNP at 4 hr; format: in vivo, human; conditions: healthy normal adult males, doses 2.5-15 μg/kg/d
[10] = Day 29, 15-30 μg/kg/d, Cohorts 3 and 4

CC[C@H](C)[C@@H]1NC(=O)[C@H](CCCNC(=N)N)NC(=O)[C@H](CC(=O)O)NC(=O)[C@H](CC(C)C)NC(=O)[C@H](CCCCN)NC(=O)[C@H](CC(C)C)NC(=O)CNC(=O)[C@H](Cc2ccccc2)NC(=O)[C@@H](NC(=O)CNC(=O)[C@H](CCCCN)NC(=O)[C@H](CO)NC(=O)[C@H](CC(C)C)NC(=O)CNC(=O)[C@H](CCCCN)NC(=O)[C@H](CCCCN)NC(=O)[C@H](CC(N)=O)NC(=O)[C@H](C)NC(=O)CNC(=O)[C@H](CCCCN)NC(=O)[C@H](Cc2ccc(O)cc2)NC(=O)[C@H](CCCCN)NC(=O)[C@H](CCCNC(=N)N)NC(=O)[C@H](C)NC(=O)[C@H](CC(N)=O)NC(=O)[C@@H]2CCCN2C(=O)[C@H](Cc2c[nH]cn2)NC(=O)[C@H](CCC(=O)O)NC(=O)[C@H](CCC(N)=O)NC(=O)CNC(=O)[C@@H]2CCCN2)CSSC[C@@H](C(=O)O)NC(=O)CNC(=O)[C@H](CC(C)C)NC(=O)CNC(=O)[C@H](CO)NC(=O)[C@H](CCSC)NC(=O)[C@H](CO)NC(=O)CNC1=O [Vosoritide]
bioactivity (urine cGMP) (urine cGMP [1]): insufficient to affect bioactivity | urine cGMP (urine cGMP [2]): significant increase | annualized growth velocity (AGV) [3]: significant and similar increase in AGV | annualized growth velocity (AGV) ([3]; listed as vosoritide): significant increases | Delta AGV @ 6 months ([3]; Cohort 1, 2.5 μg/kg/d daily subcutaneous): 0.0 ± 0.6 cm/y | Delta AGV @ 6 months ([3]; Cohort 2, 7.5 μg/kg/d daily subcutaneous): 0.5 ± 0.4 cm/y | Delta AGV @ 6 months ([3]; Cohort 3, 15 μg/kg/d daily subcutaneous): 2.1 ± 0.8 cm/y | Delta AGV @ 6 months ([3]; Cohort 4, 30 μg/kg/d daily subcutaneous): 2.5 ± 0.9 cm/y | AGV ([3]; cohorts 1 and 2 after dose increased to 15 μg/kg/day): increased AGV | AGV ([3]; lower doses 2.5 and 7.5 μg/kg/d, within 2-3 months): unaffected | facial sinus volume [4]: greater increases | facial volume [4]: greater increases | foramen magnum area [4]: greater increases | change in NTproCNP 4 hr after injection ([5]; Cohort 1, 2.5 μg/kg/d, first injection and subsequent 10 months): no change | NTproCNP at 4 hr after injection ([5]; Cohort 2, 7.5 μg/kg/d, one month after commencing treatment (P=0.02)): significant suppression | plasma NTproCNP at 8 hr post injection ([5]; Cohort 2, initial 7.5 μg/kg dose): 44.3 ± 4.7 pmol/L | plasma NTproCNP post (4 hr) ([5]; Cohort 2, initial 7.5 μg/kg dose, pre 43.3±3.5, P=0.013, n=8): 35 ± 2.7 pmol/L | plasma NTproCNP, Post ([5]; Day 29 of therapy): 37.5 ± 1.4 pmol/L | Change (delta) in plasma NTproCNP at 4 hr post Vosoritide ([5]; Day 29 of therapy): -2.4 ± 1.5 pmol/L | plasma NTproCNP, Pre ([5]; Day 29 of therapy): 39.9 ± 1.5 pmol/L | plasma NTproCNP, Post ([5]; Day 43 of therapy): 40.1 ± 1.6 pmol/L | Change (delta) in plasma NTproCNP at 4 hr post Vosoritide ([5]; Day 43 of therapy): -0.5 ± 1.0 pmol/L | plasma NTproCNP, Pre ([5]; Day 43 of therapy): 40.6 ± 1.5 pmol/L | plasma NTproCNP, Post ([5]; Day 127 of therapy): 39.8 ± 1.8 pmol/L | Change (delta) in plasma NTproCNP at 4 hr post Vosoritide ([5]; Day 127 of therapy): -1.7 ± 1.5 pmol/L | plasma NTproCNP, Pre ([5]; Day 127 of therapy): 41.5 ± 2.0 pmol/L | plasma NTproCNP, Post ([5]; Day 183 of therapy): 37.3 ± 1.3 pmol/L | Change (delta) in plasma NTproCNP at 4 hr post Vosoritide ([5]; Day 183 of therapy): -5.0 ± 1.6 pmol/L | plasma NTproCNP, Pre ([5]; Day 183 of therapy): 42.4 ± 1.4 pmol/L | plasma NTproCNP, Post ([5]; Day 365 of therapy): 36.2 ± 2.2 pmol/L | Change (delta) in plasma NTproCNP at 4 hr post Vosoritide ([5]; Day 365 of therapy): -4.3 ± 1.4 pmol/L | plasma NTproCNP, Pre ([5]; Day 365 of therapy): 40.5 ± 2.2 pmol/L | plasma NTproCNP, Post ([5]; Day 730 of therapy): 35.5 ± 2.4 pmol/L | Change (delta) in plasma NTproCNP at 4 hr post Vosoritide ([5]; Day 730 of therapy): -4.2 ± 1.5 pmol/L | plasma NTproCNP, Pre ([5]; Day 730 of therapy): 39.6 ± 2.4 pmol/L | height Z-scores [6]: increases | CXM ([7]; study 111-202, 2.5, 7.5, 15 or 30 μg/kg/day): dose-dependent increases | BSAP ([7]; study 111-202, all dose levels): appeared to increase slightly over time | P1NP ([7]; study 111-202, serum): no apparent trend or dose dependent response | CTxII ([7]; study 111-202, urine): no apparent trend or dose dependent response | AGV [8]: dramatically increased | CXM levels (serum CXM, serum BSAP; not in placebo): dramatically increased | Serum BSAP levels (serum CXM, serum BSAP; also increased to a lesser extent with placebo): increased | NTproCNP SDS ([9]; 15 μg/kg/day, study year 1.0, Cohorts 1-3 combined, n = 17): 0.54 ± 0.28 | NTproCNP SDS ([9]; 15 μg/kg/day, study year 4.0, Cohorts 1-3 combined, n = 17): 0.32 ± 0.26 | NTproCNP SDS ([9]; 15 μg/kg/day, study year 4.5, Cohorts 1-3 combined, n = 17): 0.22 ± 0.29 | NTproCNP SDS ([9]; 15 μg/kg/day, study year 5.0, Cohorts 1-3 combined, n = 17, significant difference from year 1 (P = 0.015)): −0.20 ± 0.21 | mean NTproCNP SDS ([9]; Cohorts 2 and 3, 15 μg/kg dose, years 2-4, versus screening): lower than at screening at all-time points | NTproCNP SDS ([9]; Cohorts 3 and 4 (15 and 30 μg/kg/d), at one month): significant fall | fall of NTproCNP [9, 10]: approximately 6 pmol/L | fall of NTproCNP, range [9, 10]: 3 to 11 pmol/L | NTproCNP SDS ([9]; one child of Cohort 1, age 6.5 yr, 6 months after starting 2.5 μg/kg (0.16 at screening)): 2.6 | highest NTproCNP ([9]; one subject of Cohort 4, 30 μg/kg/d): 138 pmol/L | change in plasma NTproCNP from baseline at 4 hr (plasma NTproCNP): no significant change

Source: patent US20250032576A1, “CNP Therapy” (BIOMARIN PHARMACEUTICAL INC., priority 2021, published 2025)
